These results are taken from PMC9325753, “Chilling-induced phosphorylation of IPA1 by OsSAPK6 activates chilling tolerance responses in rice”.

For at least one entry, the source does not settle the construct or the ends of the probe. For some assays here: Negatives hold for the conditions tested. For some assays here: Protein sequences can lack the tags named with them.

One data set deals with T1, GST-IPA1 (Oryza sativa) (UniProt Q7EXZ2).
T1 sequence (looked up): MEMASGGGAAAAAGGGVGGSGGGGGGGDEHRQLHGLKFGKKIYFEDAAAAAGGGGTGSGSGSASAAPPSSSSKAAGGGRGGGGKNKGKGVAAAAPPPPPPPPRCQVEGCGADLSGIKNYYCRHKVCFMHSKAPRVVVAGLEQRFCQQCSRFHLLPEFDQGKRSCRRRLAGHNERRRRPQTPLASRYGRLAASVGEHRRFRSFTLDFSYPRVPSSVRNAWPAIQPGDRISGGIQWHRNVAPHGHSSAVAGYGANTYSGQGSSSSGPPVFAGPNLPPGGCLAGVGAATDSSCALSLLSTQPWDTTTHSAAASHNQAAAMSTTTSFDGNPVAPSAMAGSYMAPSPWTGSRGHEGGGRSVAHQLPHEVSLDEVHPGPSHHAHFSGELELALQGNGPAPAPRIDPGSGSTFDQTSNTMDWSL
Description: competition with a labelled probe. Particulars: increasing unlabeled P2 against biotin-P2; LightShift Chemiluminescent EMSA Kit (Thermo 20148) per manufacturer; pH and temperature not stated; recombinant protein; residues 1-417; protein details: N-terminal GST (pGEX-4t-1). (In general: Mobility shift assays separate free from complexed probe on a gel.)

In another data set the test system is GST. As to the kind of experiment: EMSA. Particulars: LightShift Chemiluminescent EMSA Kit (Thermo 20148) per manufacturer; pH and temperature not stated; recombinant protein; protein details: GST; label: 5'-biotin on strand 1.

In the case of “TACCTAGGTTTTAAGTTATAGTACTTACAATTTTTTGATGAG (double strand) [P2-Cold (unlabeled competitor)]”, the binding result with GST-IPA1 (Oryza sativa) is on record as “binds”. As for “TACCTAGGTTTTAAGTTATAGTACTTACAATTTTTTGATGAG (double strand) [Biotin-P2 (OsCBF3 promoter)]”, the binding result with GST is “no binding”.
